These are yes or no findings as the source states them, for the method shown. Some binding calls cover weakened binding; strength is not graded here. Tags and fused reporters may be left off the sequences shown.
Molecular target: T1, EMBRYONIC FLOWER 2 (EMF2), yeast two-hybrid fusion (Arabidopsis thaliana) (UniProt Q8L6Y4)
T1 sequence: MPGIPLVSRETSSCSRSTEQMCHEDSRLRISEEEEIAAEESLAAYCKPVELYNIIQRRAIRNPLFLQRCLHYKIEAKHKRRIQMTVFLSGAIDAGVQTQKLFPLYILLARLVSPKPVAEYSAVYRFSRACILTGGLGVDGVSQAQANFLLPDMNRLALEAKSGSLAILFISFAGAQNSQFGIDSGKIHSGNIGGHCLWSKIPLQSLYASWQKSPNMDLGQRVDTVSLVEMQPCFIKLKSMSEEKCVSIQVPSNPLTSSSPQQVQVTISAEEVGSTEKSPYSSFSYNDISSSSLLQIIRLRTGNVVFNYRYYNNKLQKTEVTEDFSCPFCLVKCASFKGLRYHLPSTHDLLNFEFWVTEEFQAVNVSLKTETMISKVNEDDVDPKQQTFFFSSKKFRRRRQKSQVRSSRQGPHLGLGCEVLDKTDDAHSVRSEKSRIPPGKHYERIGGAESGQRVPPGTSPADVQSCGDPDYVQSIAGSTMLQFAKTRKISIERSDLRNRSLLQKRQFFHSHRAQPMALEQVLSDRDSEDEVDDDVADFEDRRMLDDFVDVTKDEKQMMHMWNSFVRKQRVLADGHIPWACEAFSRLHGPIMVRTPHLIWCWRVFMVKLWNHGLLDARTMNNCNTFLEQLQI
Test: two-hybrid

binding: binds
B1: UBIQUITIN SPECIFIC PROTEASE 5 (UBP5), yeast two-hybrid fusion (enzyme, UniProt O22207 1-924)
chain: MAEVSMGSSSSSTDLSPEEERVFIRDIAIAAEANSKEGDTFYLITQRWWQEWIEYVNQDQPCNTNDGSSLSEHCDSPGSSTLKKPSRIDNSDLIYDSSLEDPSNTSEIIETLQEGRDYVLLPQEVWNQLRSWYGGGPTLARRVISSGLSQTELAVEVYPLRLQLLLMPKSDHSAIRISKKETIRELHRRACEIFDLDSEHVRIWDYYGHQKYSLMNDLDKTLDDANLQMDQDILVEVLDINGTLSSAHIQSAQENGLVDGDSTSILIEPSKSSLAAAGGFSSSRNAFRTGSVEVSQSFDNTYSSTGVTTRGSTAGLTGLLNLGNTCFMNSAIQCLVHTPEFASYFQEDYHQEINWQNPLGMVGELALAFGDLLRKLWAPGRTPIAPRPFKAKLARFAPQFSGYNQHDSQELLAFLLDGLHEDLNRVKHKPYINSRDADGRPDEEVADEFWKNHIARNDSIIVDVCQGQYKSTLVCPICNKVSVTFDPFMYLSLPLQFNTTRAITVTVFSCDKTALPSTITVNVSKQGRCRDLIQALTNACSLKQSEELKLAEIRNNFIHRLFEDPLIPLSSIKDDDHLAAYKLSKSSENTTLLRLVLRRRDQKAGERESTVQLKPCGTPLLSSASCGDALTKGKIHCLVQNMLSPFRREESVGKKGNSDSSIPERRSARFNNTEEEDKVGGLKKAKKSNSSDLGASKLSLQLIDEDNKTINLPDNEAEAMKLPSSATVTIYLDWTPELSGMYDITCLESLPEVLKYGPTTKKARSEPLSLYACLEAFLREEPLVPDEMWFCPQCNERRQASKKLDLWRLPEVLVIHLKRFSYSRSMKHKLETFVNFPIHDLDLTKYVANKNLSQPQLYELYALTNHYGGMGSGHYTAHIKLLDDSRWYNFDDSHISHINEDDVKSGAAYVLFYRRKSDAGGKMT

Source: publication doi:10.1101/2022.11.15.516593
